Data: US20060216299A1, “Cell cycle targets and peptides” (Rigel Pharmaceuticals, Inc., priority 2002, published 2006)

System: A549.tTA cells
Experiment: Cell tracker assay (Dil) of GFP fusion peptides
Format: cell-based
Conditions: relative to the other two peptides
Method: A549.tTA cells were infected with tet-regulatable retroviruses expressing GFP fusion peptides, stained with the cell tracker dye, Dil, and incubated at 37° C. for five days. After the incubation, fluorescent intensity of GFP and Dil was analyzed with MoFlo. A growth ratio was obtained as the ratio of mean Dil fluorescent intensity for the GFP positive population relative to that of the GFP negative population.
Effect of GFP fused peptides and their mutants. GFP fused peptides (#40, #41, #88 and their mutants) expressing A549.tTA cells were stained with Dil and fluorescent intensity of GFP and Dil was examined with MoFlo. A growth ratio was obtained as described above. Mutated residues were underlined. Amino acid sequences of #40, #41, and #88 were aligned with leucine-rich motifs of HIV-1 Rev (amino acid position 75 to 84, gi|16118296|gb|AAL12672.1|), HTLV-1 Rex (amino acid position 82 to 93, gi|7963889|gb|AAF71372.1), Mitogen-activated protein kinase kinase 1, MAPKK, (amino acid position 33 to 43, gi|5579478|ref|NP_002746.1|), Human homologue of mouse double minute 2, Hdm-2, (amino acid position 190 to 200, gi|4505137|ref|NP_002383.1|), and Protein kinase inhibitor, PKI (amino acid position 38 to 48, gi|203271|gb|AAA40867.1|).
Effect of GFP fused peptides and their mutants. […]

| Sequence | expression level based on GFP FACS analysis |
| --- | --- |
| RLRRICSGILLIRRILGIFVRPVRP (GMDELYKEEAAKARLRRICSGILLIRRILGIFV; N-terminal biotin) [#88, Peptide 35, also called peptide 88; tested as GFP fusion] | 10 -fold lower |
| RWDPTRLLRFRFLRMLVRRSRPVRP (GFP fusion) [#40, anti-proliferative peptide tested as GFP fusion] | 10 -fold lower |
